# About 1,400 (4.5%) of roughly 31,000 sequences were called active.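 The calls were made as follows: active = median seed-adjusted z-score above 1 or below -1; inactive = the rest.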 The list shows a part of the results.
# Test: Novel Modifiers of Survival Motor Neuron (SMN) Protein: Gene Identification via Genome-wide siRNA Screen;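 also: luminescence tracks full-length SMN protein made from the SMN2 reporter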
# Details: HEK293T SMN2-luciferase reporter, siRNA knockdown, 72 h; actives lie on both sides
# Method in brief: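 Genome-wide siRNA screen (10418 genes, 3 siRNAs each, 1 pmol per well) by reverse transfection in HEK293T cells stably carrying an SMN2-luciferase reporter; luminescence after 72 hours, normalized to negative-control siRNA, log10-transformed, MAD-scored.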
row,Sequence,median seed-adjusted z-score
1,CUCUAACUAUGAUCUCGUUTT against CDS1,inactive: 0.0208
2,GUAUAUGUGACUACCCAUATT against RNF4,inactive: 0.787
3,AGAUGAGUGUUAUGCUUAUTT against ZNF793,inactive: 0.448
4,CUACUGCAUUGAUAACGAATT against TUBB2C,inactive: 0
5,AAACAAUUCCAGUCCAGUUTT against IL8RA,inactive: 0.316
6,GCCCUGCGGUACAAUGUCATT against APOBEC2,inactive: 0.232
7,CACCUGCGAUGAAAUCUCATT against ZNF395,inactive: -0.0986
8,CCAGGGAUAUGGAGCUUCATT against OTX2,inactive: -0.00351
9,GAAAGGAUGUGAAAGCCUUTT against NRIP3,inactive: -0.699
10,GGGAAUACCUGGUCUUCAATT against AGBL4,inactive: 0.487
11,CGAUUGCCCAUCAUCCUGATT against HAO2,inactive: 0.039
12,GCACCAAAGUAUACAACGATT against PRKAR2B,inactive: -0.777
13,CAGUAUACCAUCUAACAGATT against CNTN1,inactive: -0.796
14,CUGUAUGGCUUCUAUAUAATT against LBX1,inactive: -0.36
15,CAUUGAUCCACAUACCUAUTT against EPHA5,inactive: -0.00876
16,CCCGGUUGAUCAUGCAGAATT against SLC25A43,inactive: 0
17,CCACGCACAUACUAUCAAATT against HIVEP1,inactive: 0.532
18,GAUUAGCACUACAGACUAUTT against PAPOLB,inactive: 0.749
19,GGAUCCAAGUUCAUCGGGATT against DPEP2,inactive: 0
20,GCAUGUUCCUAGUAGCCCUTT against PLEKHM2,inactive: 0.593
21,GGAUCGCUCAAAAGAUAAATT against RNPS1,inactive: 0
22,GUCCGGAAACAAAACGUAATT against MTF1,inactive: -0.709

row,Sequence,median seed-adjusted z-score
1,AGAUUAAGAUGUUCUACGATT against ADI1,inactive: 0.0593
2,GGAUAACUGGAAACUAGGATT against BIRC2,inactive: 0.336
3,UCAGGGAUCUUAAUCAACATT against MS4A4A,inactive: 0.296
4,CCAGGUCACGAGUCAAGUATT against KTI12,inactive: 0.0814
5,GGAAUAAAACUGACUGAUATT against OGFRL1,inactive: 0.0339
6,GGAAAAACCUGUGCUCAUATT against LHPP,inactive: 0.02
7,GCACACCUGUCAAUAGCUUTT against SMPD1,inactive: 0.353
8,CAUCUGAAGUGGUUAAGCATT against SLC25A26,inactive: 0.0213
9,GUAUCAGAAUGAGAGUUCUTT against ACP2,inactive: -0.00569
10,CCCUAUCAGUCCAAUGGAATT against PRDM4,inactive: 0.0804
11,CCAGCCCACUCAUCUCAUUTT against SNX30,inactive: -0.157
12,CGGCUGGGUCUGUACCAAATT against TLX2,inactive: -0.182
13,CCUUAUCCUUCAAAGCAUATT against ART3,inactive: -0.434
14,GAGGUGGAAUGGGAGCACATT against TREM2,inactive: 0.057
15,CAAGAUUGGUCAACUCAAATT against RAB3C,inactive: 0.043
16,ACAUUUCCGUGCCCAUCUUTT against GPR150,inactive: -0.129
17,CAGUGUACGAGGAACAAGATT against RBM17,inactive: 0
18,CAUAAACUAUGAUCUCUUATT against RCAN1,inactive: -0.000195
19,AGGAGAACAUCAAUGUGAATT against RAB3D,inactive: 0.221
20,GAAUAACCCUGGAAAAGUUTT against ASCL3,inactive: 0.0929
21,UCAUUUAGUUUGUGUAUUATT against PRRX2,inactive: -0.141
22,GCAAUGCAGACGAUGCGUATT against TMPRSS4,inactive: -0.54

row,Sequence,median seed-adjusted z-score
1,GAAGUACACUCAGCAAACATT against VWA5A,inactive: 0
2,CUAUGUCAGCAUAAAAGAATT against ZNF493,inactive: 0.0872
3,GGAAUCACAAAUAAACUUATT against ETNK1,inactive: 0.299
4,GCACCGACUAGAUUUCCUUTT against CYP3A5,inactive: 0.0516
5,GGACGUGACCAUCAUGUACTT against IRF7,inactive: -0.304
6,GGAUCAAGGUUAUUAUGGUTT against ATP12A,inactive: -0.0941
7,GCAGGUCAAUCAAAGGGAATT against PICK1,inactive: -0.136
8,CCAACUCUUUGCAAAGUCATT against SERPINA6,inactive: 0.615
9,GGAAGGACAAAACUAUUCATT against CHM,inactive: 0.743
10,GAAACCAAGUACGAAAUUUTT against SPDYA,inactive: 0.351
11,GGACUUUGACCUAAUCAGATT against PRKCZ,inactive: -0.175
12,GGCUGUGGUCUUCAUCGAATT against TPCN2,inactive: -0.341
13,CCAUGUCUCGAAUCAACUUTT against TAP2,inactive: -0.768
14,GGAUUACCACAGCCUAAAATT against BUB1,inactive: 0.566
15,CCUUCAAACCGUUCGAGUATT against MYBPC2,inactive: 0.18
16,CACAAGAACAUGUUUCUUATT against CALCR,inactive: -0.404
17,CACUCUCUGUAAGCAUAUATT against RAD51L3,inactive: 0.155
18,GCAAGUUACAGUCCUCCGATT against RRBP1,inactive: -0.254
19,GGUUCGGGUUUGUCACGUUTT against MSI1,inactive: -0.806
20,GCAGAUUUUCGAAAGUUUUTT against SIRT5,inactive: 0.39
21,CGAAUGAUAAGAAAGCGAATT against TIGD1,inactive: 0.224
22,GAACCUCUCGAUGACCCUATT against MAML3,inactive: -0.412

row,Sequence,median seed-adjusted z-score
1,GCACUGUCAAAGACCUGAUTT against PHKG2,inactive: -0.371
2,GCCCGGCAUUUGGAUCUAUTT against FLRT3,inactive: -0.468
3,GAGAGUACAUUGCACUGUATT against GOLGA2,inactive: 0.18
4,CAACCGUGCUGGUUAUCUUTT against GPR101,inactive: -0.265
5,GGACCAGUUUAGAAGGAUATT against TDP1,inactive: -0.352
6,CCUACUUUCUAACUAUCAATT against HTR2A,inactive: 0.0665
7,CCCUUCGCGUUGUUGCUCATT against DHRS1,inactive: 0
8,GUCAGUACUUUAUCUCGUUTT against XRN1,inactive: 0.522
9,GAACUGACAUGGGAAGAUUTT against DUOX1,active: -1.09
10,GCGUAGAUGGUGAAUGUCATT against MST1R,inactive: -0.278
11,CCUUCUACACCUUUCGCUATT against MMP11,inactive: -0.354
12,GGCUUAUCCUAUCUUAUAATT against ZNF700,inactive: 0
13,CAGAUAGGAUUGUAGGUCATT against THNSL1,inactive: -0.176
14,CGAGUACAUUUUACGAGUATT against CXADR,inactive: 0.872
15,UCAUCCUCUUGAGAAUUAATT against CD6,inactive: -0.33
16,GCUCACGACUAAUUCAACATT against ZNF582,inactive: -0.421
17,GAGCAGCAACGACAAGAAATT against HAND2,inactive: 0.0864
18,GGUGCUAUGUGAGCUCAUUTT against TAGLN2,inactive: 0.432
19,CAUCAAUGCUAUCAUCUUUTT against CCL20,inactive: -0.204
20,GAGUCGAGUUUGAUGAAGATT against GSTA4,inactive: -0.848
21,ACAUGACCAUGAACACCAUTT against FOXA1,inactive: 0.279
22,GCAGUUGAUUCUUACCAGATT against TEAD2,inactive: 0.96

# Exported bar-delimited: part of the list above.
row | Sequence | median seed-adjusted z-score
18 | CAUAAACUAUGAUCUCUUATT against RCAN1 | inactive: -0.000195
1 | GCACUGUCAAAGACCUGAUTT against PHKG2 | inactive: -0.371

# (further entries)

row,Sequence,median seed-adjusted z-score
1,GGGACACCAUCUUCGCUUUTT against SEMA4F,inactive: 0.139
2,CGAAGUUUCCUAUAGAGGATT against PCDHGA10,inactive: 0.0621
3,GCAUUUUCCUCCGUUGAGATT against ZNF581,inactive: 0.486
4,GCCUCAAGAUUGACCUAGATT against STAT3,inactive: 0
5,UGAUGAGGAGUAUAUGAAATT against FUT11,inactive: -0.15
6,GGACAAGACGCAAGAAGAATT against TEF,inactive: 0
7,CGCGGUGCAUAUGAAGAUATT against PIGM,active: 1.36
8,GUUUGAGUGUGACACCUGUTT against ZNF71,inactive: -0.0193
9,GCUGAGCUCAGUAACCACATT against LCAT,inactive: 0.526
10,CCAGGUCUCCGAUGAACUUTT against BCL2L2,inactive: 0
11,GCCCAGACCUUAGUAGACATT against ZNF618,inactive: 0.311
12,GACUAAUAGCAGAAGGUAATT against PGM2,inactive: 0.355
13,AGAUCAGAUUGCAAUUCCATT against SLC23A1,inactive: 0.904
14,CCAUGUACGUCAUCCCAUUTT against PCK1,inactive: -0.401
15,CUGCUAUUCUGACCCAGAATT against KCNMB2,inactive: 0
16,CAGAUACUCCCUUCAGUAATT against SOX30,inactive: -0.167
17,CCAGCAGACUGCCUACAAATT against GPR119,inactive: -0.382
18,CCUACAAUCUGGAAACCAUTT against SERPINA9,inactive: 0.497
19,AGCUCUUUAUGCUUCUUGATT against QPCTL,inactive: -0.422
20,CCGGGAUAAUUAAUGACCATT against PHOX2A,inactive: 0.466

# Shown bar-delimited: entries from further up
row | Sequence | median seed-adjusted z-score
5 | UGAUGAGGAGUAUAUGAAATT against FUT11 | inactive: -0.15
6 | GGACAAGACGCAAGAAGAATT against TEF | inactive: 0

# From PubChem BioAssay AID1347426 (Functional Genomics Laboratory (NCATS/FGL), 2020)
